Data as given in PubChem BioAssay AID743454 (Peter MacCallum Cancer Centre, 2014)
This is an unselected part of about 18,000 deposited reagents. 450 of them (2.5%) were called active. 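Single biological run; no consistent viability z cut-off exists, so the class columns, not z-scores, define the calls.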

- Screen: 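Search for knock-downs that restore vorinostat killing in resistant colon cancer cells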 (primary screen)
- Cells: human HCT116-VR colon cancer cells, selected for vorinostat resistance
- Knock-down reagent: siRNA pool against human genes, 40 nM siRNA pool
- Time to read-out: vorinostat for 24 h, read-out about 72 h after transfection
- Conditions: vorinostat at 2.5 µM final
- Detection: 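Two measures, CellTiter-Fluor viability and luminescent caspase 3/7 activity, each as fold change against same-plate mock wells, mean of duplicates, then screen-wide robust z-score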
- Direction: viability robust z-score: higher = more viable cells than screen typical; caspase robust z-score: higher = more caspase 3/7 activity than screen typical
- Rule for the call: 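Hits are knock-downs in viability class RV1/RV2 or caspase class CA1/CA2, excluding ones that killed cells in the no-drug cell-count arm; hits then retested with single siRNAs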

no.	target gene	viability hit class	caspase hit class	viability robust z-score	caspase robust z-score	activity call
1	MMGT1	no change	no change	0.14	-0.48	inactive
2	TCL1B	no change	no change	0	0.42	inactive
3	CENPP	no change	no change	0.97	0.18	inactive
4	H4C7	no change	no change	-1.1	-0.16	inactive
5	E2F7	no change	no change	0.64	-0.42	inactive
6	CFAP157	no change	no change	0.18	0.52	inactive
7	GRP	RV2 (reduced viability)	no change	-3.52	2.04	active
8	MACROH2A1	no change	no change	0.05	0.19	inactive
9	C2orf15	RV2 (reduced viability)	no change	-3.62	3.95	active
10	SKIC8	no change	no change	-2.19	3.86	inactive
11	PCNX1	no change	no change	-0.26	1.53	inactive
12	SLC2A3	no change	no change	1.01	-0.53	inactive
13	GPD2	no change	no change	0.3	1.48	inactive
14	MRPS5	no change	no change	-0.57	-1.19	inactive
15	ITGA11	no change	no change	-0.26	-0.01	inactive
16	BMERB1	no change	no change	-0.04	0.33	inactive
17	PCK1	no change	no change	-1.09	-1.07	inactive
18	NPTX1	no change	no change	-1.27	0.68	inactive
19	MME	no change	no change	-0.31	-0.4	inactive
20	COG5	no change	no change	0.72	1.81	inactive
21	MSN	no change	no change	0.64	-0.84	inactive
22	FASLG	no change	no change	0.16	-1.23	inactive
23	GPALPP1	no change	no change	0.86	-0.86	inactive
24	STK31	no change	no change	1.75	0.76	inactive
25	NAMPT	no change	no change	-0.14	1.99	inactive
26	SPG21	no change	no change	-0.26	0.47	inactive
27	C1QTNF12	no change	no change	1.16	2.62	inactive
28	DCLRE1C	no change	no change	0.14	0.49	inactive
29	MFAP3	no change	no change	0.08	-0.52	inactive
30	MAK	no change	no change	0.2	0.3	inactive
31	MYH10	no change	no change	0.48	-0.68	inactive
32	LINC02903	no change	no change	-1.98	0.46	inactive
33	TMEM150A	no change	no change	1.12	-0.18	inactive
34	COX7B	no change	no change	1.01	-0.41	inactive
35	DOC2B	no change	no change	0.1	-0.38	inactive
36	NUB1	no change	no change	0.22	0.83	inactive
37	MRPL46	no change	no change	-0.07	-1.34	inactive
38	LMF2	no change	no change	-0.52	-0.45	inactive
39	SND1-IT1	no change	no change	0.88	-0.4	inactive
40	G6PD	no change	no change	-1.55	0.62	inactive
41	OR13J1	no change	no change	-0.06	1.35	inactive
42	SRRD	no change	no change	0.02	-0.98	inactive
43	FGF7	no change	no change	-1.25	-0.1	inactive
44	SPO11	no change	no change	-0.98	-0.33	inactive
45	SRGN	no change	no change	0.16	-0.8	inactive
46	PSMB3	no change	no change	-3.65	1.73	inactive
47	ENTPD8	no change	no change	1.23	-0.41	inactive
48	SLAMF7	no change	no change	0.49	-0.52	inactive
49	SPAM1	no change	no change	0.88	-0.92	inactive
50	ADAD2	no change	no change	-0.11	-0.56	inactive
51	PCSK7	no change	no change	1.28	3.7	inactive
52	DEFB104B	no change	no change	-1.56	-0.72	inactive
53	HOOK1	no change	no change	1.57	0.32	inactive
54	ACOXL	no change	no change	0.09	-0.25	inactive
55	DDX56	no change	no change	-2.49	1.55	inactive
56	PHLDA1	no change	no change	0.55	1.69	inactive
57	MAGEB4	no change	no change	0.48	0.5	inactive
58	RUFY4	no change	no change	0.73	-0.52	inactive
59	FAM177A1	no change	no change	-2.21	-0.26	inactive
60	DENND2A	no change	no change	0.66	-0.34	inactive
61	CHRM5	no change	no change	-0.54	0.2	inactive
62	GNA11	no change	no change	-0.56	0.59	inactive
63	SEC14L1	no change	no change	0.44	-0.35	inactive
64	IRX2-DT	no change	CA1 (caspase activation)	0.42	5.45	active
65	IPO11	no change	no change	1.53	-0.08	inactive
66	PTGDR2	no change	no change	0.02	0.38	inactive
67	SCD5	no change	no change	0.4	-0.26	inactive
68	RAPGEF5	no change	no change	-0.17	-0.57	inactive
69	GLCCI1	no change	no change	0.34	-1.25	inactive
70	MEX3A	no change	no change	0.26	-0.66	inactive
71	CALM1	no change	no change	-0.36	-1.34	inactive
72	ACVR1B	no change	no change	-0.42	-0.5	inactive
73	TCEA1	no change	no change	0.66	-0.03	inactive

Records above whose gene name starts with N or n:
target gene	viability hit class	caspase hit class	viability robust z-score	caspase robust z-score	activity call
NPTX1	no change	no change	-1.27	0.68	inactive
NAMPT	no change	no change	-0.14	1.99	inactive
NUB1	no change	no change	0.22	0.83	inactive
